From patent publication US20120094909A1
These are yes or no findings as the source states them, for the method shown. Some entries that bind do so weakly or less than the wild type.

Sequences of proteins named here, by UniProt entry; tags and fusion partners are left off. A change or cut given only in a name is not applied to a line headed by its entry. Residues count along the entry.
UniProt Q8NBP7, residues 31-692: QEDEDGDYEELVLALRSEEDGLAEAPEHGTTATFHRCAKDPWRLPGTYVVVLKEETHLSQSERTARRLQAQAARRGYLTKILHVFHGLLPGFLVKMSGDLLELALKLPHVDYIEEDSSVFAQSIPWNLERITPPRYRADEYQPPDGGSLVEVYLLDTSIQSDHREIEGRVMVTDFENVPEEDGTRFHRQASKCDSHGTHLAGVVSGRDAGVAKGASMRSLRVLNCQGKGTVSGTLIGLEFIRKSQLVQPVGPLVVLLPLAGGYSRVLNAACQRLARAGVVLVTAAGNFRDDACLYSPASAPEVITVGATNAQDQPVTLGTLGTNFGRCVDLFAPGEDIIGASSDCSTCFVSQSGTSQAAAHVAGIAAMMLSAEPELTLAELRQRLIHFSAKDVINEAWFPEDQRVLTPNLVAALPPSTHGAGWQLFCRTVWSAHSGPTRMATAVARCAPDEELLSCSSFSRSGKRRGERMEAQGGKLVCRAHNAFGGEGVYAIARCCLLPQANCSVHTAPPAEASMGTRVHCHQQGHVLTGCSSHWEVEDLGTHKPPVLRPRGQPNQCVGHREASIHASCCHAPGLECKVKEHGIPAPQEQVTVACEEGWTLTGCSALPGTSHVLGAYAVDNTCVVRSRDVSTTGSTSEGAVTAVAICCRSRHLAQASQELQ
UniProt Q28522, residues 17-600: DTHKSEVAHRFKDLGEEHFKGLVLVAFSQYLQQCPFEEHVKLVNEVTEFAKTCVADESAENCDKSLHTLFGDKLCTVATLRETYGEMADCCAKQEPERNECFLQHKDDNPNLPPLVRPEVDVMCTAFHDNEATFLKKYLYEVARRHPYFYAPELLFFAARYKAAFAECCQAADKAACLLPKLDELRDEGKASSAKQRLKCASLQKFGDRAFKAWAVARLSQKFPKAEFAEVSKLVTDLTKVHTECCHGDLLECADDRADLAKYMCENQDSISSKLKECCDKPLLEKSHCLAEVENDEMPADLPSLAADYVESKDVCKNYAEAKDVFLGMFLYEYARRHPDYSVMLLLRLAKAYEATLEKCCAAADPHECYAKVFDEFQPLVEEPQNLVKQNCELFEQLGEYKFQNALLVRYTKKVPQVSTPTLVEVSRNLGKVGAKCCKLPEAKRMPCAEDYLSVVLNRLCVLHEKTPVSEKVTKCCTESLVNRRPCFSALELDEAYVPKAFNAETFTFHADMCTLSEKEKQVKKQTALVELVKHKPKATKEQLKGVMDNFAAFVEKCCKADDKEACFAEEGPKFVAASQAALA
UniProt P02768: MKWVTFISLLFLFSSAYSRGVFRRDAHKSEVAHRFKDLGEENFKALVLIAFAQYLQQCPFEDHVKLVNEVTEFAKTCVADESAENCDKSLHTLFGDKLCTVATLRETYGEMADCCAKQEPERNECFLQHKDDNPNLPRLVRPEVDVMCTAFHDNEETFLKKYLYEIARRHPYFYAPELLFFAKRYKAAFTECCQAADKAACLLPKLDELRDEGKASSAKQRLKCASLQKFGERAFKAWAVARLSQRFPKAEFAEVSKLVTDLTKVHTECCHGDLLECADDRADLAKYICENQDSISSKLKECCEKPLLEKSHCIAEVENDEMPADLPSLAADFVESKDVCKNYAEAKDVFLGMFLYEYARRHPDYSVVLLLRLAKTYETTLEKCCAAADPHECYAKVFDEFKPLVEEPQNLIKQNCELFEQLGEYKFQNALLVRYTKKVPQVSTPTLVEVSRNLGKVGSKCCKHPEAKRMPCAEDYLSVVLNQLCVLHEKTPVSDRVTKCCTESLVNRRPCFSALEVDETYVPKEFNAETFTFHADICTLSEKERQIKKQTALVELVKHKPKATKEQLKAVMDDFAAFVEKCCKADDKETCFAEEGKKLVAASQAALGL
human serum albumin: residues 25-609 of P02768
HSA-domain I-II construct: residues 25-409 of P02768

B1: 2013E01 (designed binder)
chain: MGVSDVPRDLEVVAATPTSLLISWVPPSDDYGYYRITYGETGGNSPVQEFTVPIGKGTATISGLKPGVDYTITVYAVEFPWPHAGYYHRPISINYRTEIDKPSQHHHHHH
B2: SABA2.1 (designed binder)
chain: MGVSDVPRDLEVVAATPTSLLISWPKYDKTGHYYRITYGETGGNSPVQEFTVPTRQTTATISGLKPGVDYTITVYAVSKDDYYPHEHRPISINYRTEIDKPSQHHHHHH
B3: SABA3.1 (designed binder)
chain: MGVSDVPRDLEVVAATPTSLLISWSNDGPGLSYYRITYGETGGNSPVQEFTVPSSQTTATISGLKPGVDYTITVYAVSYYTKKAYSAGPISINYRTEIDKPSQHHHHHH
B4: SABA1.1 (designed binder)
chain: MGVSDVPRDLEVVAATPTSLLISWHSYYEQNSYYRITYGETGGNSPVQEFTVPYSQTTATISGLKPGVDYTITVYAVYGSKYYYPISINYRTEIDKPSQHHHHHH

Legend:
[1] = biological target: human PCSK9 (proprotein convertase subtilisin kexin type 9) (human) (UniProt Q8NBP7); test: unbound plasma hPCSK9, hPCSK9 transgenic mice
[2] = biological target: human PCSK9 (proprotein convertase subtilisin kexin type 9) (human) (UniProt Q8NBP7); test: ITC
[3] = biological target: rhesus serum albumin (rhesus) (UniProt Q28522); test: SPR, captured albumin
[4] = biological target: HSA-domain I-II construct (human) (UniProt P02768); test: Biacore, captured HSA and HSA domain constructs
[5] = biological target: human serum albumin (human) (UniProt P02768); test: Biacore, captured HSA and HSA domain constructs
[6] = biological target: HSA-domain I-II construct (human) (UniProt P02768); test: BIACORE domain mapping, HSA-domain I-II construct captured on chip
[7] = biological target: human serum albumin (human) (UniProt P02768); test: SPR, captured albumin, pH 5.5 to 7.4

Binder	binding [1]	binding [2]	binding [3]	binding [4]	binding [5]	binding [6]	binding [7]
B1	binds	binds	–	–	–	–	–
B2	–	–	binds	binds	binds	binds	–
B3	–	–	binds	–	binds	–	binds
B4	–	–	–	binds	–	binds	–
